One sequence from article PMC2362355 can be followed below.

By UniProt entry, the sequences of proteins in these tests, tags left out.
UniProt P03372, whole entry: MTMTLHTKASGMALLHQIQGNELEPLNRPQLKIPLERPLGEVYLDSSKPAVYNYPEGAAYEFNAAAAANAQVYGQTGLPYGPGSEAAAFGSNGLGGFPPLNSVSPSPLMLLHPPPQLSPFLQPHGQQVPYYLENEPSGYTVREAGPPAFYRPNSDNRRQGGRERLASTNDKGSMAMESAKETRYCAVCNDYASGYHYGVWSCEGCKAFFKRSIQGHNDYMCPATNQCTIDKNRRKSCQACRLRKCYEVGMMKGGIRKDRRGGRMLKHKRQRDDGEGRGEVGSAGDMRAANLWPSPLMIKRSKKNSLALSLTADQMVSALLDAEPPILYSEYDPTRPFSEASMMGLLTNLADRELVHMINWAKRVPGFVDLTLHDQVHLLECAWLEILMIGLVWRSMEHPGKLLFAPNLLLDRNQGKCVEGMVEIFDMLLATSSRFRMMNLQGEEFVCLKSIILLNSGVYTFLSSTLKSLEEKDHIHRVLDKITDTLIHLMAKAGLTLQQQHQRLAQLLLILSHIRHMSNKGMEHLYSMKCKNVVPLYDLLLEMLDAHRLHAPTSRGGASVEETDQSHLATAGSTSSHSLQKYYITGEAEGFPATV

This series concerns the target oestrogen receptor (ER), recombinant human (human) (UniProt P03372). The series can be described thus: EMSA. Particulars: no ligand, less intense band than with oestradiol; 20 mM HEPES pH 7.9, 60 mM KCl, 5 mM MgCl2, 2 mM DTT, 10% glycerol, 100 ug (unit prefix not given) BSA, 380 fmol ER, 6 ng ERE, 20 ul; 20 C 20 min then 37 C 15 min; commercial protein; label: 32P end label (T4 PNK).

For at least one entry, the source does not settle the construct or the ends of the probe. Weaker means in comparison with the reference protein, sequence or condition of that experiment.

For the sequence “GATCCAGGTCACAGTGACCTGGGCCCG (double strand) [consensus ERE 27 bp]”, the binding result is on record as “binds more weakly”.
